The target in the assay is human IgA (Athensresearch, 16-16-090701) (human). The assay is described as follows: ELISA, plate-coated immunoglobulin.

These are yes or no findings as the source states them, for the method shown. Binding calls can cover weak binding; strength is not graded here. Where a sequence is shown, tags or fusion partners need not be part of it.

B1: cx10710, comprising IgG1 SELF Fc (antibody, V domains shown)
VH: QVQLQESGPGLVKPSETLSLTCAVSGYSITSGYSWNWIRQPPGKKLEWIGSITYDGSSNYNPSLKSRVTISRDTSKNQFSLKLSSVTAADTAVYYCARGSHYFGHWHFAVWGAGTLVTVSS
VL: DIQLTQSPSSLSASVGDRVTITCRASQSVDYDGDSYMNWYQQKPGQPPKLLIYAASYLGSEIPARFSGSGSGTDFTLTISSLQPEDFATYYCQQSHEDPYTFGAGTKLEIKR
In the case of B1, the binding entry was “binds”.

The record behind these values is patent US20250163186A1.
